Where “and” joins values, the source holds several entries; their conditions need not be identical. Identical values can stand only once. The list shows a part of the results. Shown are side measurements of this screen, not its main read-out; they come without a call. The list favours compounds with an active or inconclusive main result. The note in brackets gives the kind of curve behind each potency; many fits are weak.
Test: qHTS Assay for Lipid Storage Modulators in Drosophila S3 Cells;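 for cell number change: cells counted by Cell Tracker Red CMTPX staining in the red channel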
Conditions: BODIPY lipid droplet fluorescence, 18-24 h; for cell number change: measured here: cell count max response, cells fed with added oleic acid
Procedure, shortened: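 Drosophila S3 cells got compounds at several concentrations plus oleic acid (400 uM solution). Laser-scanning cytometry with 488 nm excitation read lipid droplets at 500-530 nm and cells at 575-640 nm. Percent activity was relative to 20 uM Triacsin C.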

[1] = measured here: cell number channel AC50, cells fed with added oleic acid
[2] = measured here: lipid fluorescence (Fed channel) AC50, cells fed with added oleic acid

Structure (SMILES) | cell number change | AC50 [1] | AC50 [2]
COC(=O)C1=C(C)N(Cc2ccccc2)C(=NCc2cccc(C(F)(F)F)c2)N[C@H]1c1cccc(F)c1 | -47% and -31.6% | 29.1 µM [falling, single point] | 16.4 µM [falling, partial curve]
CCC(C(=O)OCC(=O)Nc1ccc(Cl)c(S(=O)(=O)N(C)C)c1)c1ccccc1 (stereo not drawn) | -17.2% |  | 11.6 µM [falling, partial curve]
COc1cccc(NC(=O)C(OC(=O)c2cnc(C)cn2)c2ccccc2)c1 (stereo not drawn) | -4.27% |  | 29.1 µM [falling, partial curve, poor fit]
Cc1ccccc1C(=O)N=c1c(C#N)cc2c(=O)n3cccc(C)c3nc2n1Cc1ccco1 | 28.1% | 1.3 µM [rising, partial curve] | 0.517 µM [rising, full curve]
CC(C)C[C@H](NC(=O)[C@@H](Cc1ccccc1)n1c(=O)[nH]c2ccccc2c1=O)C(=O)N[C@@H](Cc1ccccc1)C(=O)O | 15% |  | 5.8 µM [rising, full curve]
CCN(CC)c1ccc2c(cc1=O)[C@@H](NC)CCc1cc(OC)c(OC)c(OC)c1-2 |  |  | 1.16 µM [rising, partial curve, poor fit]
Cc1ccc(/C=C/c2ccc(N(C)C)cc2)[n+](C)c1 | -57.2% | 23.1 µM [falling, partial curve] | 4.11 µM [falling, full curve, poor fit]
CC(=O)Nc1ccc(-c2nc3ccc(NC(C)=O)cc3o2)cc1 | 54.1% |  | 29.1 µM [rising, single point]
Cc1cc(-c2ccccc2)nc2cc(C(=O)N(Cc3ccccc3)Cc3ccccc3)nn12 | -31.6% | 29.1 µM [falling, single point] | 29.1 µM [falling, single point]
CCc1cccc(C)c1NC(=O)COC(=O)CC1CCCC1 | 32.3% | 29.1 µM [rising, single point] | 
Cc1c(Cl)cccc1S(=O)(=O)N1CCC(C(=O)NNC(=O)C2CC2)CC1 | 8.43% |  | 0.00517 µM [rising, full curve, poor fit]
CC(C)Oc1cccc(-c2cc(C(=O)N3CCN(c4ncccn4)CC3)c3ccccc3n2)c1 | -27.8% |  | 25.9 µM [falling, single point]
Cc1ccc(NC(=O)c2ccc3c(c2)C(=O)N(c2ccccc2C)C3=O)nc1 | -27.2% |  | 29.1 µM [falling, single point]
COc1ccc(CNCc2cn(-c3cccc(F)c3)nc2-c2ccc(C)o2)cc1 | -59.9% | 18.4 µM [falling, single point] | 29.1 µM [falling, single point]
CCOC(=O)c1sc(NC(=O)Nc2ccc(F)cc2)nc1C | -23.8% |  | 18.4 µM [falling, single point]
CCCCN1C(=O)CC(C(=O)O)C1c1ccc(OC)cc1 (stereo not drawn) | -57.8% | 11.6 µM [falling, partial curve] | 18.4 µM [falling, single point]
COC(=O)c1cc(C(=O)NCc2ccc3c(c2)OCO3)cc([N+](=O)[O-])c1 | 0.365% |  | 
O=C(c1ccc(=O)oc1)N1CCN(c2ccc(F)cc2)CC1 | 9.06% |  | 
CSc1nc(-c2ccccc2)nc(C(Cl)Cl)n1 |  |  | 7.31 µM [falling, partial curve]
CC1CN(S(=O)(=O)c2csc(C(=O)Nc3ccccc3)c2)CC(C)O1 (stereo not drawn) | -27% |  | 13 µM [falling, partial curve]
CCCCn1c(N)c(N(Cc2ccccc2OC)C(=O)COc2ccc(C)cc2)c(=O)[nH]c1=O | 20.1% | 1.46 µM [rising, partial curve, poor fit] | 3.26 µM [rising, full curve]
CCOC(=O)c1c(C)nc2sc(C(=O)Nc3ccc(C(C)=O)cc3)c(N)c2c1-c1ccc(OC)cc1 | 9.35% |  | 4.61 µM [falling, single point]
COc1ccc(C(=O)O)cc1S(=O)(=O)N(C)CCc1ccccn1 | -22.9% |  | 
CC(NC(=O)C12CC3CC(CC(O)(C3)C1)C2)c1ccc(Cl)cc1Cl (stereo not drawn) | -3.6% |  | 29.1 µM [rising, single point]
COc1ccc(S(=O)(=O)n2cnc3ccccc32)cc1 |  |  | 0.291 µM [rising, single point]
CCn1c(CC(=O)Nc2ccccc2)nnc1SCC(=O)Nc1nncs1 | 14.4% |  | 0.58 µM [rising, single point]
Cn1c2cc(B(O)O)sc2c2cnn(Cc3ccccc3F)c(=O)c21 | 46% | 23.1 µM [rising, partial curve, poor fit] | 23.1 µM [rising, partial curve, poor fit]
Nc1nc2c(s1)CCc1ccccc1-2 | 5.32% |  | 6.51 µM [falling, single point]
